# Laboratory results published in PubChem BioAssay AID2685 (National Center for Advancing Translational Sciences (NCATS), 2010).
# This is one part of the list. Shown are side measurements of this screen, not its main read-out; they come without a call. The list favours compounds with an active or inconclusive main result. Potencies come from curve fits of mixed quality, noted in brackets.
# Assay: qHTS Assay for Lipid Storage Modulators in Drosophila S3 Cells;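 as to cell number change: cells counted by Cell Tracker Red CMTPX staining in the red channel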
# Conditions: BODIPY lipid droplet fluorescence, 18-24 h; for cell number change: measured here: cell count max response, cells fed with added oleic acid
# Method in brief: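 Laser-scanning cytometry quantifies lipid droplet accumulation (500–530 nm total intensity; droplet/cell object ratio) in oleic acid-fed (400 uM added) Drosophila S3 cells treated with a concentration series. 20 uM Triacsin C defined 100% inhibition.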
# [1] = measured here: cell number channel AC50, cells fed with added oleic acid
# [2] = measured here: lipid fluorescence (Fed channel) AC50, cells fed with added oleic acid
Structure (SMILES),cell number change,AC50 [1],AC50 [2]
Clc1ccc(C2[C@H]3CN(Cc4ccc(-c5ccccc5)cc4)[C@H](c4ccccc4)C34CC2(c2cccnc2)C4)cn1 (stereo not given in full),32.3%,"0.13 µM [rising, full curve]","0.116 µM [rising, full curve]"
O=C(Cn1cc(/C=C\[N+](=O)[O-])c2ccccc21)Nc1ccccc1,-24.6%,,"9.2 µM [falling, partial curve, poor fit]"
Cc1nc(SCc2ccccc2)c2ccsc2n1,-21.2%,,
O=C(CC1CCC1)NC(c1ccccc1)c1ccccc1,-31.1%,"29.1 µM [falling, single point]",
Cc1ccc(-n2c(N)c(C(=O)N3CCOCC3)sc2=S)cc1,,"6.51 µM [falling, single point]","6.51 µM [falling, single point]"
O=C(c1ccnc(Cl)c1)N1CCCC(Nc2ccc(F)cc2)C1 (stereo not given),0.232%,,
O=c1cc(N2CCCCC2)c(-c2ccccc2)nn1Cc1ccc(Cl)cc1,-0.743%,,"6.51 µM [rising, single point]"
COc1ccc(C(C)C)cc1S(=O)(=O)NCCCn1ccnc1,19.4%,,"29.1 µM [rising, single point]"
CC1CCCN(C(=O)c2ccc(CNc3c(N4CCCCC4)c(=O)c3=O)cc2)C1 (stereo not given),17.3%,"2.31 µM [rising, single point]","13 µM [rising, partial curve]"
COc1ccc(Oc2nnc(C)c3ccccc23)cc1,100%,"6.51 µM [rising, partial curve]","16.4 µM [rising, partial curve]"
CN1CCN(c2ccc(NC(=O)c3ccc4ccccc4c3)cc2)CC1,-5.67%,,"0.461 µM [rising, single point]"
O=C1/C(=C\c2cccnc2)Sc2ccccc21,-21.2%,,"23.1 µM [falling, partial curve, poor fit]"
S=c1[nH]nc(-c2ccc3ccccc3n2)n1-c1cc(Cl)cc(Cl)c1,-38.5%,"29.1 µM [falling, single point]","29.1 µM [falling, single point]"
COc1ccc(NC(=O)CN(c2ccc(C)cc2)S(=O)(=O)c2c(C)nn(C)c2C)cc1OC,21.8%,"1.84 µM [rising, partial curve]","2.31 µM [rising, partial curve]"
COC(=O)CSc1nc(N)c2c3c(sc2n1)CCCC3,-8.87%,,"29.1 µM [rising, single point]"
CCOC(=O)C1=C(Cc2ccc(C)cc2)C(=O)c2ccccc2C1=O,-98.1%,"29.1 µM [falling, single point]","14.6 µM [falling, partial curve]"
Cc1noc(/C=C/N(C)C)c1S(=O)(=O)N1CCC(C(=O)NC(C)(C)C)CC1,-18.6%,,"10.3 µM [rising, partial curve, poor fit]"
CC1(C)C(c2ccc(Cl)cc2)=[N+]([O-])C2(CCCC/C2=N\O)N1O (stereo not given),-1.48%,,"0.116 µM [falling, full curve, poor fit]"
FC(F)(F)c1n[nH]c(=S)n1/N=C/c1ccco1,-38.6%,"25.9 µM [falling, single point]","16.4 µM [falling, single point]"
CCOc1ccccc1C(=O)NCC(=O)NCC(C)(C)N1CCOCC1,22.3%,,"10.3 µM [rising, partial curve]"

Structure (SMILES),cell number change,AC50 [1],AC50 [2]
c1ccc2c(c1)OCC(CNc1ncnc3sccc13)O2 (stereo not given),-46.7%,"1.16 µM [falling, full curve]","0.58 µM [falling, full curve]"
COc1ccc(-c2cc(C(F)(F)F)nc(S(=O)(=O)CCCC(=O)Nc3cc(C)on3)n2)cc1OC,-45.8%,"13 µM [falling, partial curve, poor fit]","18.4 µM [falling, partial curve]"
Cc1cc(C(C)(C)C)oc1C(=O)N(CC(=O)NC1CCCC1)Cc1ccccc1Cl,28%,,"3.66 µM [rising, single point]"
COc1ccc2nc(NC(=O)Cc3cccs3)sc2c1,21.8%,"0.517 µM [rising, full curve, poor fit]",
O=C(COc1ccc(Br)cc1CO)Nc1ccccc1F,3.43%,,"4.11 µM [falling, full curve]"
Cc1cc(C(=O)NNC2CC(=O)N(c3ccc4ccccc4c3)C2=O)c(C)o1 (stereo not given),-1.31%,"0.0731 µM [falling, full curve, poor fit]","0.0731 µM [falling, full curve, poor fit]"
N=C1C(c2nc3ccccc3c(=O)[nH]2)=C(O)CN1CCO,,,"0.146 µM [falling, full curve, poor fit]"
COc1ccc(CCn2c(NCc3ccco3)nc3c2c(=O)[nH]c(=O)n3C)cc1,-7.49%,,"6.51 µM [falling, single point]"
O=C(NC1CCCC1)C(c1cccnc1)N(CCc1ccccc1)C(=O)c1ccco1 (stereo not given),-12.4%,,"2.59 µM [rising, single point]"
C=CCN1C(c2ccc(Br)cc2)=CS/C1=C(/C#N)c1nnc(N2CCOCC2)n1-c1ccccc1,15.8%,,"0.517 µM [rising, full curve, poor fit]"
N#CCC(=N)N1CCN(c2ccccc2)CC1,6.37%,,
NNc1nc2ccc(F)cc2s1,-50%,"0.651 µM [falling, full curve, poor fit]","5.8 µM [rising, full curve]"
CN(CCN(C)C(C)(C)C)C(=O)C(c1ccccc1)c1ccccc1,31.1%,"16.4 µM [rising, single point]",
COc1ccccc1N1CCN(C(=O)c2cc3cc(F)ccc3[nH]2)CC1,17.6%,,
Cc1cc2occ(CC(=O)O)c2cc1C,-13.4%,,
C[N+](C)(C)CCCCCC(=O)/C=N/O,-12.6%,,"0.0291 µM [falling, full curve, poor fit]"
Cc1ccc(C(=O)NCc2ccc3c(c2)OCO3)o1,-7.62%,,"3.66 µM [falling, single point]"
C=CCn1cnc2c(c1=O)c1nc3ccccc3nc1n2/N=C/c1cc(OC)c(OC)c(OC)c1,-20.3%,,
CC(=O)Nc1cccc(OCC(=O)Nc2sccc2C(N)=O)c1,-46.2%,"5.17 µM [falling, full curve, poor fit]","6.51 µM [falling, single point]"
Cc1nc2c([nH]1)C1(CCN(Cc3ccccc3)CC1)C(C#N)=C(N)O2,139%,"18.4 µM [rising, single point]",

Structure (SMILES),cell number change,AC50 [1],AC50 [2]
COc1ccc(C(=O)NC2CCN(C(=O)Nc3ccc(F)cc3)CC2)cc1,21.2%,,
Nc1cc2c(cc1C(=O)c1ccc(Cl)cc1)OCCO2,139%,"2.06 µM [rising, full curve]","2.91 µM [rising, partial curve]"
CC(=O)Nc1ccc(NC(=O)CSc2ncc(C(=O)Nc3ccccc3)c(=O)n2C)cc1,,"3.66 µM [rising, single point]",
Cc1ccccc1[C@@H](NC(=O)OC(C)(C)C)C(=O)OC(C)(C)C,-13.3%,,
CCC(C)[C@H](NC(=O)N1CCN(c2cccc(C(F)(F)F)c2)CC1)C(=O)OC (stereo not given in full),,,"6.51 µM [rising, single point]"
COc1ccccc1-c1ccc2nnc(SCC(=O)N3CCCC3)n2n1,,,"0.326 µM [rising, partial curve, poor fit]"
Cc1ccc(C(=O)N(CC(=O)NC2CCCC2)c2ccccc2Cl)s1,12.6%,,"29.1 µM [falling, single point]"
COc1ccccc1OCC#CCSc1ncccn1,5.1%,,
O=C(C1=C[C@@H](c2ccccc2)C[C@@H](OCCCCO)O1)N1CCOCC1,-5.72%,,"0.00517 µM [falling, full curve, poor fit]"
CN1C(=O)[C@H]2[C@@H](/C=C/c3ccccc3)N3C(=O)CN(CCO)C(=O)[C@@]3(Cc3ccccc3)[C@H]2C1=O,-1.2%,,
CCCC(=O)NC(C)c1nc2ccccc2n1CC (stereo not given),-75.9%,"32.6 µM [falling, partial curve]","3.66 µM [falling, full curve, poor fit]"
Cc1nccn1-c1ccc(C(F)(F)F)cc1[N+](=O)[O-],24.2%,,"29.1 µM [rising, single point]"
Cc1ccccc1Nc1nc(N)nc(COC(=O)/C=C/c2ccco2)n1,,"2.31 µM [rising, partial curve, poor fit]",
COc1ccc(CNC(=O)CN2CCN(S(=O)(=O)c3cc(Br)ccc3Br)CC2)cc1OC,-13.2%,,"0.164 µM [falling, full curve, poor fit]"
COc1ccc(OC)c(NC(=O)NCCCCc2ccccc2)c1,,,"29.1 µM [falling, single point]"
CCOc1ccc(CNc2nc3ccccc3n2C)cc1,-28.4%,,"1.64 µM [rising, partial curve, poor fit]"
C=C(C)C1CC=C(C)/C(=N/NC(=O)CCCNc2cccc(C)c2)C1 (stereo not given),1.99%,"1.46 µM [rising, full curve, poor fit]",
CCOC(=O)c1c(-c2ccc(C)o2)csc1NC(=O)CN(C)CC(=O)Nc1ccc(C)cc1,116%,"5.8 µM [rising, full curve]","0.103 µM [rising, full curve, poor fit]"
